Test results reported in the supplement of paper PMC11006884.
This is a selection; strong and weak results do not stand in their true shares. The data scatter; read single values as rough.

Protein sequences, listed by entry. Tags and fused reporters are not part of them. Lines headed by an entry give the natural chain unless they say otherwise; changes in a name come on top.
UniProt Q9UK45: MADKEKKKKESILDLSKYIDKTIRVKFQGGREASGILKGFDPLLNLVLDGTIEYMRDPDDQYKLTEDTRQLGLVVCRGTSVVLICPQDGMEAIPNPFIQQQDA
UniProt Q9UNN5: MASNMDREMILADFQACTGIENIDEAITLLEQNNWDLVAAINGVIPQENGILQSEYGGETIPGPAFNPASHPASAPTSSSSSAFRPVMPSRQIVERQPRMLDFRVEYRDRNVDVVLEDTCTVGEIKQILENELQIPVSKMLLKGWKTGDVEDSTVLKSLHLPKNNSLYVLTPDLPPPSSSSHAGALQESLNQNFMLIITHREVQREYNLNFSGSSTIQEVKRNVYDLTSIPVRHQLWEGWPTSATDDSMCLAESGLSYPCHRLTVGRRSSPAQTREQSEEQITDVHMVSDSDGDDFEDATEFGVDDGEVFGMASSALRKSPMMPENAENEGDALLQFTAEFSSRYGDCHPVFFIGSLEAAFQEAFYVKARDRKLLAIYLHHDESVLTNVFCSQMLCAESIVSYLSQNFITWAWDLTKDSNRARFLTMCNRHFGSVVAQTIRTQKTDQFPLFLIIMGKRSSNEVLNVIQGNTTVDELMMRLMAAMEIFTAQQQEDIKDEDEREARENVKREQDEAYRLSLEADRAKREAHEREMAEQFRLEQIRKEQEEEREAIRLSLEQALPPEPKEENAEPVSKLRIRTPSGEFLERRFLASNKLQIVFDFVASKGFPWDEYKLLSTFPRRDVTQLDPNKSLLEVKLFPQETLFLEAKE
UniProt Q9UPU5: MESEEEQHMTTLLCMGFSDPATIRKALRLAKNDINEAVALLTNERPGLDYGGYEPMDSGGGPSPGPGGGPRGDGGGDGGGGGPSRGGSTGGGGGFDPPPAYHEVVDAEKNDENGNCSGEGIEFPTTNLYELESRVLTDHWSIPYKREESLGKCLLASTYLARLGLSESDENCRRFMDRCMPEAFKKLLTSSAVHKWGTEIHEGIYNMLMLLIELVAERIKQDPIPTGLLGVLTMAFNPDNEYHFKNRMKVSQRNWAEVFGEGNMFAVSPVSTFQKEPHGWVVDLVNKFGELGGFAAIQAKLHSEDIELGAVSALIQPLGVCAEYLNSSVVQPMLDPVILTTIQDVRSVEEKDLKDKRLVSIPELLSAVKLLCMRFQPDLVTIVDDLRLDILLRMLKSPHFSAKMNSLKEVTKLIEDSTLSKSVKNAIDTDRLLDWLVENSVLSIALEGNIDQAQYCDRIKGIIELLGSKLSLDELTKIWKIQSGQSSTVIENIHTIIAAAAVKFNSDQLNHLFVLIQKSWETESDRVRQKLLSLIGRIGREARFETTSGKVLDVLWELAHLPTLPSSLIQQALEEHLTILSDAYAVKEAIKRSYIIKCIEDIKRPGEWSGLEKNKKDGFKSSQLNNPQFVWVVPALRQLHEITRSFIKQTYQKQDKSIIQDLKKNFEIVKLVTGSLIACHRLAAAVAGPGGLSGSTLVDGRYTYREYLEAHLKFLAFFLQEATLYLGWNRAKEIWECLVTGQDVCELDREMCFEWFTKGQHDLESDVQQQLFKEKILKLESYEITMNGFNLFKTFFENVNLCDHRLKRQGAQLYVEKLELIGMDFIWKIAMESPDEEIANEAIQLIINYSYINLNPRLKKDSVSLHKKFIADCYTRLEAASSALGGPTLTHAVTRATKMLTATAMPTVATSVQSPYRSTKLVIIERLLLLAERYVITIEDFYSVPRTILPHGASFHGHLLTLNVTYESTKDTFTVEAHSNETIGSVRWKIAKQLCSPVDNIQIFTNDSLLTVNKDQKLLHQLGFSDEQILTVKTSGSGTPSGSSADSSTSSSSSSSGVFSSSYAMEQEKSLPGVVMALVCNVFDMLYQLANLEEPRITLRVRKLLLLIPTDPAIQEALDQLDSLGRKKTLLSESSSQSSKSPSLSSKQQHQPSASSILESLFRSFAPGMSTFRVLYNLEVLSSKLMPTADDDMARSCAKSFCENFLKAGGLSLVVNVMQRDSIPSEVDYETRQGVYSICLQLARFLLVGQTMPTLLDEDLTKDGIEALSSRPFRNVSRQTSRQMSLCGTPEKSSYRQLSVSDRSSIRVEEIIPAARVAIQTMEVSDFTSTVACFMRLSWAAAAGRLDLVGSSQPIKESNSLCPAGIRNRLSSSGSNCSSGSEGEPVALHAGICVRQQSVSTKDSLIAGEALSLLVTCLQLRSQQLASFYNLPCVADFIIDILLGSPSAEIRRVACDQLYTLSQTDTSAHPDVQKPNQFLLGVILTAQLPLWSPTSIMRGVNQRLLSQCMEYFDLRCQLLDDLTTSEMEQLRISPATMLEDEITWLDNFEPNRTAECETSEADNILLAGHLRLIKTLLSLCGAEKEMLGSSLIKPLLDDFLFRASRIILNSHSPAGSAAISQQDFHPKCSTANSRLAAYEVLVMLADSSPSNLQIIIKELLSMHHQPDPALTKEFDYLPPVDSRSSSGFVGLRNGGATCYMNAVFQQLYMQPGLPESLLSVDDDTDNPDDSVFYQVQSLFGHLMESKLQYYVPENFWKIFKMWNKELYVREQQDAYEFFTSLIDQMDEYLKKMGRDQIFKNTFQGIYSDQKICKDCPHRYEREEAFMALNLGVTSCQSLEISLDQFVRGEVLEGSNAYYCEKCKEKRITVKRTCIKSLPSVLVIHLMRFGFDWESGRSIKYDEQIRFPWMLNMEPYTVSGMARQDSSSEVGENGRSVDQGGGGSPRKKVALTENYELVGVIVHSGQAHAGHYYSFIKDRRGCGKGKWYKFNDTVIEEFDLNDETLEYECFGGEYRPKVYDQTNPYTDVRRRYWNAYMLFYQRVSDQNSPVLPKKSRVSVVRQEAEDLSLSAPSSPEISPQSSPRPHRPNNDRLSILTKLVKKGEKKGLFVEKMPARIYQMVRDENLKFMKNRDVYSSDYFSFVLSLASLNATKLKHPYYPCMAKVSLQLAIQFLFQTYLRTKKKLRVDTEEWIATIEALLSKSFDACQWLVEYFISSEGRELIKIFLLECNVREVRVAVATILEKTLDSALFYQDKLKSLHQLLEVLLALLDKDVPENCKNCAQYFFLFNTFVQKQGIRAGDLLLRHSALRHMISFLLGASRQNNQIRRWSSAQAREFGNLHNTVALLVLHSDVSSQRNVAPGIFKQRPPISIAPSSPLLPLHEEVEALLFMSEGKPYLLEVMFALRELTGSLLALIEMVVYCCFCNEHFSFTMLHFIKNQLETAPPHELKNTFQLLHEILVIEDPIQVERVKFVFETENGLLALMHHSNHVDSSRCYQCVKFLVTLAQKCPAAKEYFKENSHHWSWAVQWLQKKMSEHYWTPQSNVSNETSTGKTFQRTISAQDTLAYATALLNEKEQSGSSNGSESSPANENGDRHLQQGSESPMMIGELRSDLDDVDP
UniProt Q9UQE7: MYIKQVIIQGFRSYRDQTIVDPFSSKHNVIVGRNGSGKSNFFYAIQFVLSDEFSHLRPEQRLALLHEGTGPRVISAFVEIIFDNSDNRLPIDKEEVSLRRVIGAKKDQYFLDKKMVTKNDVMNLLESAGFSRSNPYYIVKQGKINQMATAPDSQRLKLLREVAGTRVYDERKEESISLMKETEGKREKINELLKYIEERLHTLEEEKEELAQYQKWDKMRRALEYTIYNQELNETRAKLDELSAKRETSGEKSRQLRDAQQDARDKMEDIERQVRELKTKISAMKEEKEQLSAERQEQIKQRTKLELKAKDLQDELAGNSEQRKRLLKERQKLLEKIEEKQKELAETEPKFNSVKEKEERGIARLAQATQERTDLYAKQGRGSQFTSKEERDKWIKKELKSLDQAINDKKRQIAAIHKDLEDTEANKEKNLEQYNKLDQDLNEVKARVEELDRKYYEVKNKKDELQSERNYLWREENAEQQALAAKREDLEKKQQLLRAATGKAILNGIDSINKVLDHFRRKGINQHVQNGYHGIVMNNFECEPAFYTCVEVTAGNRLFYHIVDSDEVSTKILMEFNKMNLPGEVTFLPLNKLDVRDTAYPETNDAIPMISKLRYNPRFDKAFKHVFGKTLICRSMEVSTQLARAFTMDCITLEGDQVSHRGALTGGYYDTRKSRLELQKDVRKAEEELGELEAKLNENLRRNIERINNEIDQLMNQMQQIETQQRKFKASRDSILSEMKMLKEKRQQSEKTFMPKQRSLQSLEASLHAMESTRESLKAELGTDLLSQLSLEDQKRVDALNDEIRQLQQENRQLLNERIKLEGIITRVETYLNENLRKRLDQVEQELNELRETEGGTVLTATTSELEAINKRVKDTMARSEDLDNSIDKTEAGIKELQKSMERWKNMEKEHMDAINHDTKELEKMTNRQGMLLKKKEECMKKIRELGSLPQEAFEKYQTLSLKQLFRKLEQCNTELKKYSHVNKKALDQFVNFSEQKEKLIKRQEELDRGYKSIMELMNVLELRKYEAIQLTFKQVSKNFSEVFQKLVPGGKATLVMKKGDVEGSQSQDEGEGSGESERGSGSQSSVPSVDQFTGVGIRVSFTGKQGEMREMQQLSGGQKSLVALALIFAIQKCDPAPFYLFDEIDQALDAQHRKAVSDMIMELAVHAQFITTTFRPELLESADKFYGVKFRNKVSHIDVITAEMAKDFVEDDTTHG
UniProt Q9Y3L5: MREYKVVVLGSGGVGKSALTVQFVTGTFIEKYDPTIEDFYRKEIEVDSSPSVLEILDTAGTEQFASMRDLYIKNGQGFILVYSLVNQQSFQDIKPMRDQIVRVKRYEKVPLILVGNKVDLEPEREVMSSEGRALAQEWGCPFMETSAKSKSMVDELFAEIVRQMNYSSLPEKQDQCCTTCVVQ
UniProt Q9ULW3: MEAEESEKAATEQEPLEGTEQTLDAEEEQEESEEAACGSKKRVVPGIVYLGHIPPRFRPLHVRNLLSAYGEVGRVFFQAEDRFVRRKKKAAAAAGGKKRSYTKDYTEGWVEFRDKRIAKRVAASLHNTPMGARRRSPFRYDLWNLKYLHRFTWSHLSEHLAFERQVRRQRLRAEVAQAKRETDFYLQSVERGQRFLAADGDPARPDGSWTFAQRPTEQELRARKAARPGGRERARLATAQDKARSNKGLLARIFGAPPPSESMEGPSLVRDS
UniProt Q9UJU6: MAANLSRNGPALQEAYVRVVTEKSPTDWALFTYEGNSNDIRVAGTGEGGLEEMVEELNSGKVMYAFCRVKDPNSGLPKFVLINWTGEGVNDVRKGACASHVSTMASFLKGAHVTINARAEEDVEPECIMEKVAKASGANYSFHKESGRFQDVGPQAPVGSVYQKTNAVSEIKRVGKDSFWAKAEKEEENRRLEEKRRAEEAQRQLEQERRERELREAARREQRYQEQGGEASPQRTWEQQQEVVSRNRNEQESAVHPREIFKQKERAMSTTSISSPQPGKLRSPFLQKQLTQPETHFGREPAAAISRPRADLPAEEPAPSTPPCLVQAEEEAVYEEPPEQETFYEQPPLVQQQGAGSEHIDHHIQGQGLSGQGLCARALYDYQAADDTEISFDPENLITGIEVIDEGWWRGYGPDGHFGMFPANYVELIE
UniProt Q9Y383: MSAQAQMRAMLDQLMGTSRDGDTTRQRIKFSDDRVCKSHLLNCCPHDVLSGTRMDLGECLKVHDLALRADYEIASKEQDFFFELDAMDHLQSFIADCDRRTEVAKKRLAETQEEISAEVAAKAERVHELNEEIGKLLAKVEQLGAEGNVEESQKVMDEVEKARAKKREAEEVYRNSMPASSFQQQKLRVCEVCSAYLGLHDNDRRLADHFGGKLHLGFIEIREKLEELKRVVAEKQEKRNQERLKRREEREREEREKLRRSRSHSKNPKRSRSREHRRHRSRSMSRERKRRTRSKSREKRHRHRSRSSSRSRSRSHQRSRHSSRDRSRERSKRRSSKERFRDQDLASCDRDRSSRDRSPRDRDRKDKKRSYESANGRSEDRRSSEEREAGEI
UniProt Q9Y3D0: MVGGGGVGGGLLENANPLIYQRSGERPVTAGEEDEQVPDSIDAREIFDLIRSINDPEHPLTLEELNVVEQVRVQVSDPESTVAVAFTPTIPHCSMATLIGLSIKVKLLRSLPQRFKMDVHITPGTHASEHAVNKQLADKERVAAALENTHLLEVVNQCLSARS
UniProt Q9Y2W6: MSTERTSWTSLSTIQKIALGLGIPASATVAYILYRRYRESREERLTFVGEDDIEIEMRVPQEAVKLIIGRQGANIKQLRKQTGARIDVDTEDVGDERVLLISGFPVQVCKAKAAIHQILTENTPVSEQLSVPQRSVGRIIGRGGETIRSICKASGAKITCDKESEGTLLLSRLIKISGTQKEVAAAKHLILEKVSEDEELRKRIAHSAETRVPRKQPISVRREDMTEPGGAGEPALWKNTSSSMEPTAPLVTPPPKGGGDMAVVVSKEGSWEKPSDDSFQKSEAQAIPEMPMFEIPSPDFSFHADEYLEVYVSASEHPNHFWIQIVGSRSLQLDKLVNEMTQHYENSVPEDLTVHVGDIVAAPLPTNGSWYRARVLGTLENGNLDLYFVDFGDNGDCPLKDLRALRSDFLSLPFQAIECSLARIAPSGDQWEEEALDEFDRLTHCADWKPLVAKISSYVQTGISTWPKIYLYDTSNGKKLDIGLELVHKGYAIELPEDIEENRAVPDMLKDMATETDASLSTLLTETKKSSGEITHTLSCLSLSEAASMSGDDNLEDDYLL

compound: COC(=O)/C=C/c1ccccc1 [methyl cinnamate]; experiment: log2 ratio of iodoacetamide-alkyne labeling of the cysteine site, DMSO over compound (competition); higher = stronger covalent engagement of the cysteine by the compound, active = 1 or more; conditions: 500 µM; treatment time 1 h; system: HEK293T cell lysate
Summary of the method: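 HEK293T lysate (2 mg/mL) was treated with DMSO or electrophile (500 µM, 1 h, ambient temperature), then iodoacetamide alkyne (1 h), clicked to sCIP-TMT reagents, pooled, trypsin-digested overnight at 37 °C, streptavidin-enriched and acid-eluted. Peptides were run on Orbitrap Eclipse LC-MS/MS with FAIMS and quantified in FragPipe. The log2 competition ratio per cysteine is mean control-channel over mean compound-channel reporter intensity. Duplicate channels and three replicates were used, and cysteines quantified in only one replicate were excluded.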

Row | Target | log2 ratio of iodoacetamide-alkyne labeling
1 | ANKRD50 C87 (UniProt Q9ULJ7) | inactive: 0.319
2 | LSM7 C76 (UniProt Q9UK45) | inactive: 0.289
3 | HOOK1 C432 (UniProt Q9UJC3) | inactive: 0.264
4 | DRG1 C195 (UniProt Q9Y295) | inactive: 0.163
5 | FAF1 C260 (UniProt Q9UNN5) | inactive: -0.116
6 | NIP7 C36 (UniProt Q9Y221) | inactive: -0.019
7 | HECTD1 C2224 (UniProt Q9ULT8) | inactive: 0.278
8 | SLC25A13 C503 (UniProt Q9UJS0) | inactive: 0.0376
9 | PSMD13 C182 (UniProt Q9UNM6) | inactive: 0.175
10 | RUVBL2 C227 (UniProt Q9Y230) | inactive: 0.112
11 | NCKAP1 C618 (UniProt Q9Y2A7) | inactive: 0.2
12 | HECTD1 C1893 (UniProt Q9ULT8) | inactive: -0.0849
13 | ACOT9 C155 (UniProt Q9Y305) | inactive: 0.0895
14 | NUP50 C416 (UniProt Q9UKX7) | inactive: -0.119
15 | USP24 C14 (UniProt Q9UPU5) | inactive: 0.211
16 | UniProt Q9Y2L5_C265 | inactive: 0.251
17 | SMC3 C650 (UniProt Q9UQE7) | inactive: -0.141
18 | ACIN1 C733 (UniProt Q9UKV3) | inactive: 0.404
19 | UniProt Q9Y3L5_C140 | inactive: 0.138

Row | Target | log2 ratio of iodoacetamide-alkyne labeling
20 | PSME2 C91 (UniProt Q9UL46) | inactive: 0.304
21 | ABT1 C37 (UniProt Q9ULW3) | inactive: 0.217
22 | DIS3 C799 (UniProt Q9Y2L1) | inactive: 0.05
23 | LEMD3 C346 (UniProt Q9Y2U8) | inactive: 0.335
24 | DDX20 C538 (UniProt Q9UHI6) | inactive: 0.249
25 | DBNL C97 (UniProt Q9UJU6) | inactive: 0.24
26 | CHORDC1 C59 (UniProt Q9UHD1) | inactive: -0.096
27 | NUP50 C181 (UniProt Q9UKX7) | inactive: -0.234
28 | LUC7L2 C97 (UniProt Q9Y383) | inactive: -0.353
29 | GTF3C4 C116 (UniProt Q9UKN8) | inactive: 0.0819
30 | UniProt Q9Y3D0_C93 | inactive: -0.165
31 | AK6 C53 (UniProt Q9Y3D8) | inactive: 0.115
32 | UniProt Q9UKA8_C239 | inactive: 0.289
33 | TDRKH C109 (UniProt Q9Y2W6) | inactive: 0.0902
34 | NOB1 C147 (UniProt Q9ULX3) | inactive: 0.152
35 | LUC7L2 C36 (UniProt Q9Y383) | inactive: 0.149
36 | UniProt Q9Y448_C296 | inactive: 0.0745
37 | UniProt Q9Y2K2_C333 | inactive: 0.323

Looked up above:
log2 ratio of iodoacetamide-alkyne labeling, UniProt Q9Y2K2_C333 reads inactive: 0.323
log2 ratio of iodoacetamide-alkyne labeling, LUC7L2 C97 (UniProt Q9Y383) reads inactive: -0.353
log2 ratio of iodoacetamide-alkyne labeling, GTF3C4 C116 (UniProt Q9UKN8) reads inactive: 0.0819
